Data as given in PubChem BioAssay AID1224826 (NIAID, 2016)

Test: 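Knock-downs that raise or lower Tnf reporter signal after endotoxin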 (primary screen)
Cells: RAW264.7 G9 macrophages from mouse bearing reporters for p65 (GFP) and the Tnf promoter (mCherry)
Knock-down reagent: siRNA pool against mouse genes, 100 nM
Duration: 16 h of LPS stimulation, after 2 days of siRNA transfection
Treatment: bacterial lipopolysaccharide (Salmonella minnesota R595), 10 ng/ml
Measurement: 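Imaged Tnf reporter mCherry in nuclei, minus background, normalised per plate to the median and expressed as robust z-scores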
Direction: Tnf reporter robust z-score: higher = stronger Tnf promoter reporter signal after LPS; Tnf reporter intensity: higher = stronger Tnf promoter reporter signal
Hit rule: 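Called active when robust z-score is at most -1.3, matching the median of the Tlr4 knock-down control, or over 3; control wells and wells with under 50 cells never active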
Calls: active = Tnf reporter clearly lowered or raised; inactive = no clear change in Tnf reporter
In all, the deposit lists about 17,000 reagents; this is a random part of them. In the full data, about 1,110 (6.6%) were called active. 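Active means lowered or raised reporter signal; replicate intensities are raw and not normalised per plate.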 Unmarked entries are inactive. The numbers tell different reagents against one gene apart.

no.	target	pool no.	Tnf reporter robust z-score	fewer than 50 cells in well	Tnf reporter intensity, replicate 1	Tnf reporter intensity, replicate 2
1	Ppme1	1	0.51	enough cells in well	174	198
2	Otx1	1	-1.3 (active)	enough cells in well	155	86.3
3	Wdr5b	1	0.92	enough cells in well	394	65.7
4	Ankrd44	1	-1.31 (active)	enough cells in well	107	73.4
5	Esm1	1	-0.76	enough cells in well	160	182
6	Slc5a7	1	-1.59 (active)	enough cells in well	47.2	46.2
7	Psmb9	1	-0.17	enough cells in well	238	176
8	Or6c202	1		fewer than 50 cells per well; well left out of calls	97.4	68.8
9	Gng11	1	-0.11	enough cells in well	162	363
10	Or9i14	1	0.73	enough cells in well	274	116
11	Wbp1	1	-0.06	enough cells in well	103	97.8
12	Dgkb	1	1.96	enough cells in well	326	262
13	Cacna2d2	1	-1.27	enough cells in well	93.7	102
14	Parp3	1	-1.26	enough cells in well	89.4	105
15	Or8b1	1	4.82 (active)	enough cells in well	260	307
16	Nherf4	1	1.51	enough cells in well	203	220
17	Avp	1	0.7	enough cells in well	163	222
18	Tbx5	1	-0.16	enough cells in well	224	125
19	Dzip1l	1		fewer than 50 cells per well; well left out of calls	294	61.5
20	Psme4	1		fewer than 50 cells per well; well left out of calls	26.4	0
21	Pdgfa	1	-0.12	enough cells in well	250	160
22	Or5ac25	1	-0.32	enough cells in well	160	108
23	Or5ac25	2	-0.35	enough cells in well	148	114
24	Dpp9	1	-0.3	enough cells in well	170	79.6
25	Dcaf17	1	-0.45	enough cells in well	108	56.7
26	Ciao3	1	-0.21	enough cells in well	221	93.1
27	Sdk1	1	-1.46 (active)	enough cells in well	94.4	92.9
28	Tm9sf3	1		fewer than 50 cells per well; well left out of calls	45.7	31.2
29	Shox2	1	-0.36	enough cells in well	251	185
30	Rab8b	1	0.37	enough cells in well	108	184
31	Fam171a2	1	-0.94	enough cells in well	144	138
32	Cdh23	1	-0.78	enough cells in well	164	169
33	Ash2l	1	0.14	enough cells in well	154	197
34	Fam110a	1	-0.03	enough cells in well	122	148
35	Cox16	1		fewer than 50 cells per well; well left out of calls	57.2	38.3
36	Fgfr1op2	1	0.82	enough cells in well	327	168
37	Pllp	1	0.11	enough cells in well	154	69.4
38	Fabp1	1	0.1	enough cells in well	265	208
39	Treml6	1	1.02	enough cells in well	290	265
40	Csgalnact1	1		fewer than 50 cells per well; well left out of calls	121	64

Called active, of those listed so far:
target	pool no.	Tnf reporter robust z-score	fewer than 50 cells in well	Tnf reporter intensity, replicate 1	Tnf reporter intensity, replicate 2
Otx1	1	-1.3 (active)	enough cells in well	155	86.3
Ankrd44	1	-1.31 (active)	enough cells in well	107	73.4
Slc5a7	1	-1.59 (active)	enough cells in well	47.2	46.2
Or8b1	1	4.82 (active)	enough cells in well	260	307
Sdk1	1	-1.46 (active)	enough cells in well	94.4	92.9
